{"source": "patent EP2582674B1", "about": "(Cymabay Therapeutics, Inc., priority 2010, dated 2011)", "biological_target": "T1, human GPR120 (Homo sapiens, UniProt Q5NUL3)", "T1 construct": "host or cells: HEK293 cells co-expressing Gqi5", "T1 sequence (Q5NUL3 1-361)": "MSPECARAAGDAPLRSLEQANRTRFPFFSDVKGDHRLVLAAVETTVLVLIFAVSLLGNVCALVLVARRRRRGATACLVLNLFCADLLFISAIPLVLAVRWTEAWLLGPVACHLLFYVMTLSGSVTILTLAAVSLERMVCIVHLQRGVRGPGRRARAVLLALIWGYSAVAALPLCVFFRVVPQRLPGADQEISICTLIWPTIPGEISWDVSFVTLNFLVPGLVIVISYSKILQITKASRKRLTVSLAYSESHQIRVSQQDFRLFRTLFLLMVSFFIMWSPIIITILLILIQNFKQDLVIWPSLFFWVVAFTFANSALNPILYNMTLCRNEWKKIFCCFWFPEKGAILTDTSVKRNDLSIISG", "assay": "Intracellular Ca2+ assay in human GPR120 stable cell line (FLIPR Calcium 4 dye, Flexstation)", "type": "cell-based", "conditions": "eight concentrations from 0.00001 to 20 µM; changes (Max-Min) of fluorescence intensity", "note": "Some results were stated once for a whole list of compounds, not compound by compound."}
{"smiles": "CC1(C)Cc2cc(Cl)cc(COc3ccc(CCCC(=O)O)cc3)c2O1", "note": "[Example 168, 4-(4-((5-chloro-2,2-dimethyl-2,3-dihydrobenzofuran-7-yl)methoxy)phenyl)butanoic acid]", "values": [{"measurement": "EC50", "result": "≤ 1", "unit": "µM"}]}
{"smiles": "CC1(C)Cc2c(COc3ccc4c(c3)CC[C@@H]4CC(=O)O)cc(F)cc2O1", "note": "[Example 188, (R)-2-(5-((6-fluoro-2,2-dimethyl-2,3-dihydrobenzofuran-4-yl)methoxy)-2,3-dihydro-1H-inden-1-yl)acetic acid]", "values": [{"measurement": "EC50", "result": "≤ 1", "unit": "µM"}]}
{"smiles": "CC1(C)Cc2cc(-c3ccccc3)cc(COc3ccc4c(c3)CCC4CC(=O)O)c2O1", "note": "(stereo not shown) [Example 187, 2-(5-((2,2-dimethyl-5-phenyl-2,3-dihydrobenzofuran-7-yl)methoxy)-2,3-dihydro-1H-inden-1-yl)acetic acid]", "values": [{"measurement": "EC50", "result": "≤ 1", "unit": "µM"}]}
{"smiles": "COc1cc(CC(C)C(=O)O)ccc1OCc1cc(Cl)cc2c1OC(C)(C)C2", "note": "(stereo not shown) [Example 15, 3-(4-((5-chloro-2,2-dimethyl-2,3-dihydrobenzofuran-7-yl)methoxy)-3-methoxyphenyl)-2-methylpropanoic acid]", "values": [{"measurement": "EC50", "result": "≤ 1", "unit": "µM"}]}
{"smiles": "COc1cc(CC(C)C(=O)O)ccc1OCc1cc(F)cc2c1OC(C)(C)C2", "note": "(stereo not shown) [Example 7, 3-(4-((5-fluoro-2,2-dimethyl-2,3-dihydrobenzofuran-7-yl)methoxy)-3-methoxyphenyl)-2-methylpropanoic acid]", "values": [{"measurement": "EC50", "result": "≤ 1", "unit": "µM"}]}
{"smiles": "CC(Cc1cc(F)c(OCc2cc(F)cc3c2CC(C)(C)O3)c(F)c1)C(=O)O", "note": "(stereo not shown) [Example 101, 3-(3,5-difluoro-4-((6-fluoro-2,2-dimethyl-2,3-dihydrobenzofuran-4-yl)methoxy)phenyl)-2-methylpropanoic acid]", "values": [{"measurement": "EC50", "result": "≤ 1", "unit": "µM"}]}
{"smiles": "CC1(C)Cc2cc(Cl)cc(COc3ccc4c(c3)CCCC4CC(=O)O)c2O1", "note": "(stereo not shown) [Example 154, 2-(6-((5-chloro-2,2-dimethyl-2,3-dihydrobenzofuran-7-yl)methoxy)-1,2,3,4-tetrahydronaphthalen-1-yl)acetic acid]", "values": [{"measurement": "EC50", "result": "≤ 1", "unit": "µM"}]}
{"smiles": "CC1(C)Cc2cc(F)cc(COc3ccc4c(c3)CC[C@@H]4CC(=O)O)c2O1", "note": "[Example 178, (R)-2-(5-((5-fluoro-2,2-dimethyl-2,3-dihydrobenzofuran-7-yl)methoxy)-2,3-dihydro-1H-inden-1-yl)acetic acid]", "values": [{"measurement": "EC50", "result": "≤ 1", "unit": "µM"}]}
{"smiles": "CC1(C)Cc2cc(F)cc(COc3ccc4c(CC(=O)O)cc(=O)oc4c3)c2O1", "note": "[Example 263, 2-(7-((5-fluoro-2,2-dimethyl-2,3-dihydrobenzofuran-7-yl)methoxy)-2-oxo-2H-chromen-4-yl)acetic acid]", "values": [{"measurement": "EC50", "result": "≤ 1", "unit": "µM"}]}
{"smiles": "CC1(C)Cc2cc(F)cc(COc3ccc(CCC(=O)O)c(-c4ccccc4)c3)c2O1", "note": "[Example 72, 3-(5-((5-fluoro-2,2-dimethyl-2,3-dihydrobenzofuran-7-yl)methoxy)-[1,1'-biphenyl]-2-yl)propanoic acid]", "values": [{"measurement": "EC50", "result": "≤ 1", "unit": "µM"}]}
{"smiles": "CC1(C)Cc2cc(Cl)cc(COc3ccc(C4CC4CC(=O)O)c(F)c3)c2O1", "note": "(stereo not shown) [Example 211, 2-(2-(4-((5-chloro-2,2-dimethyl-2,3-dihydrobenzofuran-7-yl)methoxy)-2-fluorophenyl)cyclopropyl)acetic acid]", "values": [{"measurement": "EC50", "result": "≤ 1", "unit": "µM"}]}
{"smiles": "CC1(C)Cc2cc(Cl)cc(COc3ccc4c(c3)CCC4CC(=O)O)c2O1", "note": "(stereo not shown) [Example 36, 2-(5-((5-chloro-2,2-dimethyl-2,3-dihydrobenzofuran-7-yl)methoxy)-2,3-dihydro-1H-inden-1-yl)acetic acid]", "values": [{"measurement": "EC50", "result": "≤ 1", "unit": "µM"}]}
{"smiles": "O=C(O)CCc1ccc(OCc2cc(F)cc3c2OC2(CCCC2)C3)cc1Cl", "note": "[Example 195, 3-(2-chloro-4-((5-fluoro-3H-spiro[benzofuran-2,1'-cyclopentane]-7-yl)methoxy)phenyl)propanoic acid]", "values": [{"measurement": "EC50", "result": "≤ 1", "unit": "µM"}]}
